PubChem BioAssay AID1671195 – Yale University | 2021
The deposit covers about 22,000 reagents; shown is an unselected part. About 1,510 of all reagents (6.9%) count as active. 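Active includes knockdowns raising or lowering LDL uptake; positive z-scores mean more uptake, negative mean less.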 Entries without a mark were called inactive.

- Test: 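Regulators of LDL receptor activity judged by labelled LDL uptake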 (primary screen)
- Cells: human Huh7 hepatoma cells
- Reagents: siRNA pool against human genes, 18 nM
- Duration: about 2 to 2.5 days of knockdown, then 8 h LDL uptake
- Challenge: DiI-labelled LDL at 30 µg/ml for 8 h, in lipoprotein-deficient serum medium
- Measurement: 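Fluorescent LDL signal imaged in cells, scaled to the plate median, robust z-score for each replicate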
- Direction: robust z-score: higher = more LDL uptake after knockdown
- Call rule: 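Active when two or more replicates show a robust z-score above 2 or below -2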

CLIC1P1 (CLIC1 pseudogene 1): robust z-score, replicate 1 = 2.22 (active); robust z-score, replicate 2 = 2.05; robust z-score, replicate 3 = 2.56
RBBP6 (RB binding protein 6, ubiquitin ligase): robust z-score, replicate 1 = 1.09 (active); robust z-score, replicate 2 = 1.32; robust z-score, replicate 3 = 1.11
JSRP1 (junctional sarcoplasmic reticulum protein 1): robust z-score, replicate 1 = -0.111; robust z-score, replicate 2 = -0.627; robust z-score, replicate 3 = -0.677
PLEKHO2 (pleckstrin homology domain containing O2): robust z-score, replicate 1 = 3.27 (active); robust z-score, replicate 2 = 2.11; robust z-score, replicate 3 = 3.02
HDGF (heparin binding growth factor): robust z-score, replicate 1 = 0.36; robust z-score, replicate 2 = -0.103; robust z-score, replicate 3 = 0.185
HTRA1 (HtrA serine peptidase 1): robust z-score, replicate 1 = 2.06 (active); robust z-score, replicate 2 = 1.92; robust z-score, replicate 3 = 2.58
C3AR1 (complement C3a receptor 1): robust z-score, replicate 1 = 1.21; robust z-score, replicate 2 = 1.08; robust z-score, replicate 3 = 0.727
FAM170B (family with sequence similarity 170 member B): robust z-score, replicate 1 = -0.779; robust z-score, replicate 2 = -0.607; robust z-score, replicate 3 = -0.463
LINC00242 (long independently transcribed non-coding RNA 242): robust z-score, replicate 1 = -1.12; robust z-score, replicate 2 = -1.05; robust z-score, replicate 3 = -1.24
TMIE (transmembrane inner ear): robust z-score, replicate 1 = 0.116; robust z-score, replicate 2 = 0.597; robust z-score, replicate 3 = 0.868
RPS26P29 (ribosomal protein S26 pseudogene 29): robust z-score, replicate 1 = -1.42; robust z-score, replicate 2 = -0.792; robust z-score, replicate 3 = -0.9
CD14 (CD14 molecule): robust z-score, replicate 1 = -0.248; robust z-score, replicate 2 = -0.917; robust z-score, replicate 3 = 0.239
MEMO1 (mediator of cell motility 1): robust z-score, replicate 1 = -0.0214; robust z-score, replicate 2 = -0.723; robust z-score, replicate 3 = -0.556
SPMIP9 (sperm microtubule inner protein 9): robust z-score, replicate 1 = -0.966; robust z-score, replicate 2 = -1.46; robust z-score, replicate 3 = -1.05
LOC441805 (retired record): robust z-score, replicate 1 = 0.942; robust z-score, replicate 2 = 0.0317; robust z-score, replicate 3 = 0.213
FAM177A1 (family with sequence similarity 177 member A1): robust z-score, replicate 1 = 3.28 (active); robust z-score, replicate 2 = 1.97; robust z-score, replicate 3 = 1.75
CDADC1 (cytidine and dCMP deaminase domain containing 1): robust z-score, replicate 1 = -1.15; robust z-score, replicate 2 = -1.31; robust z-score, replicate 3 = -1.49
MTMR2 (myotubularin related protein 2): robust z-score, replicate 1 = -1.12; robust z-score, replicate 2 = -0.811; robust z-score, replicate 3 = -1.21
GAMTP1 (guanidinoacetate N-methyltransferase pseudogene 1): robust z-score, replicate 1 = 0.0518; robust z-score, replicate 2 = -0.278; robust z-score, replicate 3 = -0.371
LOC441052: robust z-score, replicate 1 = 0.2; robust z-score, replicate 2 = -0.465; robust z-score, replicate 3 = -0.39
PACSIN3 (protein kinase C and casein kinase substrate in neurons 3): robust z-score, replicate 1 = -0.27; robust z-score, replicate 2 = -0.0595; robust z-score, replicate 3 = -0.68
DBH (dopamine beta-hydroxylase): robust z-score, replicate 1 = 0.375; robust z-score, replicate 2 = 1.04; robust z-score, replicate 3 = 0.76
OR52M1 (olfactory receptor family 52 subfamily M member 1): robust z-score, replicate 1 = 1.27; robust z-score, replicate 2 = 0.825; robust z-score, replicate 3 = 0.238
LOC338829 (retired record): robust z-score, replicate 1 = 1.02; robust z-score, replicate 2 = 1.4; robust z-score, replicate 3 = 1.12
